EP1017810B1 (THE GOVERNMENT OF THE UNITED STATES OF AMERICA, as …, priority 1997, dated 2004)

Assay: general procedure: Fmoc solid-phase peptide synthesis
Settings: whole synthesis, C18 reverse-phase HPLC

## PEPTIDE1{Y.L.S.G.A.N.I.N.L}$$$$V2.0
  purity (crude or final not stated): greater than 90% pure

Strings that start with PEPTIDE1 are HELM notation: dots part the residues, brackets hold end groups and non-standard residues.
